Laboratory results as given in patent publication US20240246956A1, “CLASS IIA HISTONE DEACETYLASE (HDAC) DEGRADER LIGANDS AND METHODS OF USE THEREOF” (DANA-FARBER CANCER INSTITUTE, INC., priority 2021, published 2024).
Some results were stated once for a whole list of compounds, not compound by compound. At least one compound was matched to its structure with a doubt left.

system: class IIa HDACs; test: Global quantitative proteomics, change in protein abundance in Kelly cells; format: cell-based, human; conditions: heatmap FIG. 3
Method: Cells were washed once with phosphate-buffered saline (PBS), harvested with CellstripperTM (Corning®), washed two additional times with PBS and snap frozen in liquid nitrogen. […] Proteins were precipitated using methanol/chloroform in Donovan et al., Elife 7:e38430 (2018). The precipitated protein was resuspended in 4 M Urea, 50 mM HEPES pH 7.4, followed by dilution to 1 M urea with the addition of 200 mM EPPS, pH 8. Proteins were first digested with LysC (1:50: enzyme:protein) for 12 hours at room temperature. The LysC digestion was diluted to 0.5 M Urea with 200 mM EPPS pH 8 followed by digestion with trypsin (1:50: enzyme:protein) for 6 hours at 37° C. Tandem mass tag (TMT) reagents (Thermo Fisher Scientific) were dissolved in anhydrous acetonitrile (ACN) according to manufacturer's instructions. Anhydrous ACN was added to each peptide sample to a final concentration of 30% v/v, and labeling was induced with the addition of TMT reagent to each sample at a ratio of 1:4 peptide:TMT label. The 11-plex labeling reactions were performed for 1.5 hours at room temperature and the reaction quenched by the addition of hydroxylamine to a final concentration of 0.3% for 15 minutes at room temperature. The sample channels were combined at a 1:1 ratio, desalted using C18 solid phase extraction cartridges (Waters®) and analyzed by LC-MS for channel ratio comparison. Samples were then combined using the adjusted volumes determined in the channel ratio analysis and dried down in a speed vacuum. The combined sample was then resuspended in 1% formic acid, and acidified (pH 2-3) before being subjected to desalting with C18 SPE (Sep-Pak®-, Waters®). […] The 96 resulting fractions were then pooled in a non-contiguous manner into 24 fractions and these fractions were used for subsequent mass spectrometry analysis. Data were collected using an Orbitrap FusionTM LumosTM mass spectrometer (Thermo Fisher Scientific, San Jose, CA, USA) coupled with a […] pump (Thermo Fisher Scientific). Peptides were separated on an EasySprayTM ES803.rev2 75 μm inner diameter microcapillary column (ThermoFisher Scientific). Peptides were separated using a 190 min gradient of 6-27% acetonitrile in 1.0% formic acid with a flow rate of 300 nL/min. Each analysis used an MS3-based TMT method as described in McAlister et al., Anal. Chem. 86(14):7150-7158 (2014). The data were acquired using a mass range of m/z 340-1350, resolution 120,000, automatic gain control (AGC) target 1×10^6, maximum injection time 100 ms, dynamic exclusion of 120 seconds for the peptide measurements in the Orbitrap FusionTM LumosTM mass spectrometer. Data dependent MS2 spectra were acquired in the ion trap with a normalized collision energy (NCE) set at 55%, AGC target set to 1.5×10^5 and a maximum injection time of 150 ms. MS3 scans were acquired in the Orbitrap FusionTM LumosTM mass spectrometer with a higher energy collision dissociation (HCD) set to 55%, AGC target set to 1.5×10^5, maximum injection time of 150 ms, resolution at 50,000 and with a maximum synchronous precursor selection (SPS) precursors set to 10. Proteome Discoverer 2.2 (Thermo Fisher Scientific) was used for .RAW file processing and controlling peptide and protein level false discovery rates, assembling proteins from peptides, and protein quantification from peptides. MS/MS spectra were searched against a Swissprot human database (December 2016) with both the forward and reverse sequences. […] TMT reporter ion intensities were measured using a 0.003 Da window around the theoretical m/z for each reporter ion in the MS3 scan. […] Reporter ion intensities were normalized and scaled using in-house scripts in the R framework. Statistical analysis was carried out using the limma package within the R framework as described in Ritchie et al., Nucleic Acids Res. 43(7):e47 (2015).

| Compound | degradation of class IIa HDACs (heatmap) |
| --- | --- |
| O=C1CCC(N2C(=O)c3cccc(NCCOCCOCCN4CCC(CNC(=O)c5cccc(-c6noc(C(F)(F)F)n6)c5)(c5nc(-c6ccccc6)cs5)CC4)c3C2=O)C(=O)N1 (stereo not drawn) [Compound 2] | degradation |
| Cc1ncsc1-c1ccc([C@H](C)NC(=O)[C@@H]2C[C@@H](O)CN2C(=O)[C@@H](NC(=O)CCCCCCCN2CCC(CNC(=O)c3cccc(-c4noc(C(F)(F)F)n4)c3)(c3nc(-c4ccccc4)cs3)CC2)C(C)(C)C)cc1 [Compound 5, (2S,4R)-1-((S)-3,3-dimethyl-2-(8-(4-(4-phenylthiazol-2-yl)-4-((3-(5-(trifluoromethyl)-1,2,4-oxadiazol-3-yl)benzamido)methyl)piperidin-1-yl)octanamido)butanoyl)-4-hydroxy-N-((S)-1-(4-(4-methylthiazol-5-yl)phenyl)ethyl)pyrrolidine-2-carboxamide] | degradation |
| Cc1ncsc1-c1ccc([C@H](C)NC(=O)[C@@H]2C[C@@H](O)CN2C(=O)[C@@H](NC(=O)CCOCCN2CCC(CNC(=O)c3cccc(-c4noc(C(F)(F)F)n4)c3)(c3nc(-c4ccccc4)cs3)CC2)C(C)(C)C)cc1 [Compound 6, (2S,4R)-1-((S)-3,3-dimethyl-2-(3-(2-(4-(4-phenylthiazol-2-yl)-4-((3-(5-(trifluoromethyl)-1,2,4-oxadiazol-3-yl)benzamido)methyl)piperidin-1-yl)ethoxy)propanamido)butanoyl)-4-hydroxy-N-((S)-1-(4-(4-methylthiazol-5-yl)phenyl)ethyl)pyrrolidine-2-carboxamide] | degradation |
| Cc1ncsc1-c1ccc([C@H](C)NC(=O)[C@@H]2C[C@@H](O)CN2C(=O)[C@@H](NC(=O)CCOCCOCCN2CCC(CNC(=O)c3cccc(-c4noc(C(F)(F)F)n4)c3)(c3nc(-c4ccccc4)cs3)CC2)C(C)(C)C)cc1 [Compound 9, (2S,4R)-1-((S)-3,3-dimethyl-2-(3-(2-(2-(44-(4-phenylthiazol-2-yl)-4-((3-(5-(trifluoromethyl)-1,2,4-oxadiazol-3-yl)benzamido)methyl)piperidin-1-yl)ethoxy)ethoxy)propanamido)butanoyl)-4-hydroxy-N-((S)-1-(4-(4-methylthiazol-5-yl)phenyl)ethyl)pyrrolidine-2-carboxamide] | degradation |
| CN[C@@H](C)C(=O)N[C@H](C(=O)N1CCC[C@H]1c1nc(C(=O)c2cccc(OCCOCCN3CCC(CNC(=O)c4cccc(-c5noc(C(F)(F)F)n5)c4)(c4nc(-c5ccccc5)cs4)CC3)c2)cs1)C1CCCCC1 [Compound 11] | degradation |
| N-((2R)-1-((2-((1-(3-(2-((S)-1-((S)-2-cyclohexyl-2-((S)-2-(methylamino)propanamido)acetyl)pyrrolidin-2-yl)thiazole-4-carbonyl)phenoxy)-3-methoxypropan-2-yl)oxy)ethyl)(ethyl)amino)propan-2-yl)-4-(5-(trifluoromethyl)-1,2,4-oxadiazol-3-yl)benzamide [Compound 19] | degradation |
